The target of data set [1] is MqsA (Escherichia coli K-12 MG1655) (UniProt Q46864). As to the kind of experiment: DNase I footprinting. As to conditions: residues 1-131; letters put together from the description.
Data set [2] has the same target. Kind of data set: EMSA. The settings on record: residues 1-131; letters put together from the description.

By UniProt entry, the sequences of proteins in these tests, tags left out. Where a name states a change or a piece, a line headed by the entry shows the natural chain unless it says otherwise.
UniProt Q46864: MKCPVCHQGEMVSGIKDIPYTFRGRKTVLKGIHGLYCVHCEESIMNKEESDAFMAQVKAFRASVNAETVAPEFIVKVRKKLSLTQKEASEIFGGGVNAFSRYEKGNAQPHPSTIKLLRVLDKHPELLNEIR

For the sequence “GATTGCGTAGCAGGGCCACTGGTATCTGCCGGTATCACCGACATTAACATTGAAGACGACCAGGGCATTCACGTCCGCCTGATAGTTCGTGATGCCGAAGGTCGGATGGTTGGCGGGCATGGAACTTTGAACCGGACGCCGGTGAAGGTTTTAACCGCTATATCCACAGGTCAGGCATCCGCACCGACACCTTCCCCCGCTGACTCCGAATCATTTACCAGCAACATTTCACCTTCCCAAACGCGCTTTATTACCTCATACGCCAG (double strand) [FAM-yfjY promoter footprint probe]”, in data set [1], the binding result is recorded as “binds”.

Regarding “GATTGCGTAGCAGGGCCACTGGTATCTGCCGGTATCACCGACATTAACATTGAAGACGACCAGGGCATTCACGTCCGCCTGATAGTTCGTGATGCCGAAGGTCGGATGGTTGGCGGGCATGGAACTTTGAACCGGACGCCGGTGAAGGTTTTAACCGCTATATCCACAGGTCAGGCATCCGCACCGACACCTTCCCCCGCTGACTCCGAATCATTTACCAGCAACATTTCACCTTCCCAAACGCGCTTTATTACCTCATACGCCAG (double strand) [yfjY (lfgA) promoter probe, wild type]”, the binding result in data set [2] is recorded as “binds”.
